Measured values reported in US20220142967A1, “Methods and Compositions for the Treatment of Multiple Sclerosis” (SYMBIONYX PHARMACEUTICALS INC, priority 2018, published 2022).
Where a name gives a salt, the structure may show the parent alone. For at least one compound, name, drawing or mass did not settle the structure.

What was measured:
[1] = test system: human fetal astrocytes derived from cerebral cortex; test: Transcriptome analysis of astrocyte cultures treated with MMF, DRF, IDMF; assay type: cell-based; conditions: 2.5 μM, 24 hours
Procedure: (§1) Experiments were performed using human fetal astrocytes derived from cerebral cortex (cat. no. 882A-05f; Cell Applications, Sant Diego, Calif.). Cells were grown to subconfluence in human astrocyte growth medium (cat. no. 820-500, Cell Applications). […] Test materials were added to subconfluent cultures at a concentration of 2.5 μM and cells were incubated for 24 hours.
(§2) RNA was extracted following the incubation period using the RNAeasy Mini Plus kit (Qiagen, Hilden, Germany) and robotic Qiacube Connect station (Qiagen). Samples were shipped on dry ice to the Thermo Fisher Microarray Research Services Laboratory (Santa Clara, Calif.) for transcriptome analysis. RNA quality analysis was performed upon sample receipt using the NanoDrop Lite (Thermo Fisher Scientific, Waltham, Mass.). All samples had 260/280 nm absorbance ratios higher than 1.90, consistent with high-purity RNA.
In follow-up to the study of Example, 1 above, genes associated with multiple sclerosis were identified based upon seven established database sources: (1) the NHGRI-EBI genome-wide association (GWA) study catalogue, (2) the Disease Ontology (DO) database, (3) the DisGeNET (curated) database, (4) the DisGeNET (BeFree), (5) MalaCards, (6) the Medical Subject Heading (MESH) database and the KEGG Database. The impact on gene expression of IDMF, MMF and DRF on the key overlapping MS-associated genes was assessed. […]

[2] = test system: human fetal astrocytes derived from cerebral cortex; test: Comparative RT-PCR evaluation of selected genes in astrocytes; assay type: cell-based
Procedure: as §1, §2
The expression of selected genes was further evaluated using RT-PCR. cDNA was prepared using the AzuraQuant cDNA kit (Azura Genomics, Raynham, Mass.) and PCR reactions were performed using the BioRad iCycler iQ Detection System with Fast Green qPCR Master Mix—Fluor (Azura Genomics). PCR primers were purchased from Realtimeprimers (Elkins Park, Pa.). The ΔΔCt method [Livak K. J. and Schmittgen T. D. Analysis of relative gene expression data using real-time quantitative PCR and the 2(−Delta Delta C(T)) Method. […]

[3] = test system: MS; conditions: MS patients, oral therapy; cited from earlier work

SMILES | effect on TNFAIP3, NFKBIA and ICAM1 expression [1] | OSGIN1 expression ([2]; FIG. 11(B)) | expression of key MS-associated genes (IL-6, ICAM1, MALT1, TNFAIP3, IRF1, CXCL8) ([2]; FIGS. 11(C) through 11(H)) | Disability reduction, % [3] | Gadolinium enhancement reduction, % [3] [%] | Relapse rate reduction vs. placebo, % [3] | T2w lesion reduction, % [3] [%]
COC(=O)/C=C/C(=O)O [MMF, monomethyl fumarate] | effectively no effect | suppression | negligible effect | – | – | – | –
C/C(O)=C(\C#N)C(=O)Nc1ccc(C(F)(F)F)cc1 [Teriflunomide] | – | – | – | 30-31% | 80 | 31-36% | 67
CCCCCCCCc1ccc(CCC(N)(CO)CO)cc1 [Fingolimod] | – | – | – | 30% | 82 | 53% | 74
